According to patent US20160050923A1, “N-SUBSTITUTED ACYL-IMINO-PYRIDINE COMPOUNDS AND DERIVATIVES FOR COMBATING ANIMAL PESTS” (BASF SE, priority 2013, published 2016):
Some results were stated once for a whole list of compounds, not compound by compound.

How the values were obtained:
Myzus persicae = test: Green peach aphid (Myzus persicae) spray test on infested bell pepper plants; format: in vivo; settings: 2500 ppm, after 5 days
Method: B.1 Green Peach Aphid (Myzus persicae)
The active compounds were formulated by a Tecan liquid handler in 100% cyclohexanone as a 10,000 ppm solution supplied in tubes. The 10,000 ppm solution was serially diluted in 100% cyclohexanone to make interim solutions. These served as stock solutions for which final dilutions were made by the Tecan in 50% acetone:50% water (v/v) into 5 or 10 ml glass vials. A nonionic surfactant (Kinetic®) was included in the solution at a volume of 0.01% (v/v). The vials were then inserted into an automated electrostatic sprayer equipped with an atomizing nozzle for application to plants/insects.
Bell pepper plants at the first true-leaf stage were infested prior to treatment by placing heavily infested leaves from the main colony on top of the treatment plants. Aphids were allowed to transfer overnight to accomplish an infestation of 30-50 aphids per plant and the host leaves were removed. The infested plants were then sprayed by an automated electrostatic plant sprayer equipped with an atomizing spray nozzle. The plants were dried in the sprayer fume hood, removed, and then maintained in a growth room under fluorescent lighting in a 24-hr photoperiod at about 25° C. and about 20-40% relative humidity. Aphid mortality on the treated plants, relative to mortality on untreated control plants, was determined after 5 days.

Megoura viciae = test: Vetch aphid (Megoura viciae) broad bean leaf disk microtiter test; format: in vivo; settings: 2500 ppm; Megoura viciae on broad bean leaf disks; 5 days
Method: B.2 Vetch Aphid (Megoura viciae)
For evaluating control of vetch aphid (Megoura viciae) through contact or systemic means the test unit consisted of 24-well-microtiter plates containing broad bean leaf disks.
The compounds were formulated using a solution containing 75% v/v water and 25% v/v DMSO. Different concentrations of formulated compounds were sprayed onto the leaf disks at 2.5 μl, using a custom built micro atomizer, at two replications.
After application, the leaf disks were air-dried and 5-8 adult aphids were placed on the leaf disks inside the microtiter plate wells. The aphids were then allowed to suck on the treated leaf disks and were incubated at about 23±1° C. and about 50±5% relative humidity for 5 days. Aphid mortality and fecundity was then visually assessed.

| SMILES | mortality in comparison with untreated controls (Myzus persicae) | mortality in comparison with untreated controls (Megoura viciae) |
| --- | --- | --- |
| O=C(N=c1ccccn1Cc1ccc(Cl)[n+]([O-])c1)C(F)(F)S(=O)(=O)Cc1ccccc1 [E2-1] | at least 75% | at least 75% |
| O=C(N=c1ccccn1Cc1ccc(Cl)nc1)C(F)(F)SCc1ccccc1F [E2-22] | at least 75% | – |
| O=C(N=c1ccccn1Cc1ccc(Cl)nc1)C(F)(F)SCc1ccc(Cl)cc1Cl [E2-24] | – | at least 75% |
| CC(C)CSC(F)(F)C(=O)N=c1ccccn1Cc1ccc(Cl)nc1 [E2-27] | at least 75% | at least 75% |
| O=C(N=c1ccccn1Cc1ccc(Cl)nc1)C(F)(F)SCc1ccc(Cl)cc1 [E2-30] | at least 75% | – |
| O=C(N=c1ccccn1Cc1ccc(Cl)nc1)C(F)(F)SCCc1ccccc1 [E2-31] | at least 75% | at least 75% |
| CCC(C)CSC(F)(F)C(=O)N=c1ccccn1Cc1ccc(Cl)nc1 (stereo not drawn) [E2-36] | at least 75% | at least 75% |
| CCCCOC(=O)CSC(F)(F)C(=O)N=c1ccccn1Cc1ccc(Cl)nc1 [E2-37] | at least 75% | – |
| CCOC(=O)C(C)SC(F)(F)C(=O)N=c1ccccn1Cc1ccc(Cl)nc1 (stereo not drawn) [E2-38] | at least 75% | – |
| O=C(N=c1ccccn1Cc1ccc(Cl)nc1)C(F)(F)SCc1ccc(Cl)c(Cl)c1 [E2-42] | at least 75% | – |
| O=C(N=c1ccccn1Cc1ccc(Cl)nc1)C(F)(F)SCCCCOc1ccccc1 [E2-54] | at least 75% | – |
| CCCCSC(F)(F)C(=O)N=c1ccccn1Cc1ccc(Cl)nc1 [E2-55] | at least 75% | at least 75% |
| COc1ccc(CS(=O)(=O)C(F)(F)C(=O)N=c2ccccn2Cc2ccc(Cl)nc2)cc1 [E2-60] | at least 75% | – |
| O=C(N=c1ccccn1Cc1ccc(Cl)nc1)C(F)(F)S(=O)(=O)Cc1cc(Cl)ccc1Cl [E2-62] | at least 75% | – |
| COC(=O)CCS(=O)(=O)C(F)(F)C(=O)N=c1ccccn1Cc1ccc(Cl)nc1 [E2-67] | at least 75% | – |
| CC(C)CCS(=O)(=O)C(F)(F)C(=O)N=c1ccccn1Cc1ccc(Cl)nc1 [E2-70] | at least 75% | – |
| O=C(N=c1ccccn1Cc1ccc(Cl)nc1)C(F)(F)Sc1ccc(C(F)(F)F)cn1 [E2-83] | at least 75% | – |
| O=C(N=c1ccccn1Cc1ccc(Cl)nc1)C(F)(F)Sc1cccc(Cl)c1 [E2-87] | at least 75% | at least 75% |
| O=C(N=c1ccccn1Cc1ccc(Cl)nc1)C(F)(F)Sc1ccc(F)cc1 [E2-88] | at least 75% | – |
| O=C(N=c1ccccn1Cc1ccc(Cl)nc1)C(F)(F)Sc1c(Cl)cccc1Cl [E2-89] | at least 75% | – |
| O=C(N=c1ccccn1Cc1ccc(Cl)nc1)C(F)(F)Sc1ccccc1Cl [E2-90] | at least 75% | – |
| Cc1ccc(CS(=O)(=O)C(F)(F)C(=O)N=c2ccccn2Cc2ccc(Cl)nc2)cc1 [E2-102] | at least 75% | – |
| O=C(N=c1ccccn1Cc1ccc(Cl)nc1)C(F)(F)S(=O)(=O)CCCCOc1ccccc1 [E2-103] | at least 75% | – |
| CCCCS(=O)(=O)C(F)(F)C(=O)N=c1ccccn1Cc1ccc(Cl)nc1 [E2-104] | at least 75% | at least 75% |
| O=C(N=c1ccccn1Cc1ccc(Cl)nc1)C(F)(F)Sc1ccccc1 [E2-150] | at least 75% | at least 75% |
| O=C(N=c1ccccn1Cc1ccc(Cl)nc1)C(F)(F)Sc1ccncc1 [E2-152] | at least 75% | at least 75% |

| SMILES | mortality in comparison with untreated controls (Myzus persicae) | mortality in comparison with untreated controls (Megoura viciae) |
| --- | --- | --- |
| CCOCCS(=O)(=O)C(F)(F)C(=O)N=c1ccccn1Cc1ccc(Cl)nc1 [E2-157] | at least 75% | at least 75% |
| COCCS(=O)(=O)C(F)(F)C(=O)N=c1ccccn1Cc1ccc(Cl)nc1 [E2-158] | at least 75% | at least 75% |
| CCCCCCCS(=O)(=O)C(F)(F)C(=O)N=c1ccccn1Cc1ccc(Cl)nc1 [E2-161] | at least 75% | – |
| CCSC(SC)C(=O)N=c1ccccn1Cc1ccc(Cl)nc1 (stereo not drawn) [E2-163] | at least 75% | at least 75% |
| CSC(SC(C)C)C(=O)N=c1ccccn1Cc1ccc(Cl)nc1 (stereo not drawn) [E2-164] | at least 75% | at least 75% |
| CCC(C)SC(SC(C)CC)C(=O)N=c1ccccn1Cc1ccc(Cl)nc1 (stereo not drawn) [E2-165] | at least 75% | at least 75% |
| O=C(N=c1ccccn1Cc1ccc(Cl)nc1)C(SCC(F)(F)F)SCC(F)(F)F [E2-166] | at least 75% | at least 75% |
| COc1ccc(C[S+]([O-])C(F)(F)C(=O)N=c2ccccn2Cc2ccc(Cl)nc2)cc1 (stereo not drawn) [E2-167] | at least 75% | at least 75% |
| O=C(N=c1ccccn1Cc1ccc(Cl)nc1)C(F)(F)[S+]([O-])Cc1ccccc1F (stereo not drawn) [E2-168] | at least 75% | at least 75% |
| O=C(N=c1ccccn1Cc1ccc(Cl)nc1)C(F)(F)[S+]([O-])Cc1cc(Cl)ccc1Cl (stereo not drawn) [E2-169] | at least 75% | at least 75% |
| O=C(N=c1ccccn1Cc1ccc(Cl)nc1)C(F)(F)[S+]([O-])Cc1ccc(Cl)cc1Cl (stereo not drawn) [E2-170] | at least 75% | at least 75% |
| O=C(N=c1ccccn1Cc1ccc(Cl)nc1)C(F)(F)[S+]([O-])Cc1ccc(F)cc1 (stereo not drawn) [E2-171] | at least 75% | at least 75% |
| O=C(N=c1ccccn1Cc1ccc(Cl)nc1)C(F)(F)[S+]([O-])CCCOc1ccccc1 (stereo not drawn) [E2-172] | at least 75% | at least 75% |
| CC(C)C[S+]([O-])C(F)(F)C(=O)N=c1ccccn1Cc1ccc(Cl)nc1 (stereo not drawn) [E2-173] | at least 75% | at least 75% |
| COC(=O)CC[S+]([O-])C(F)(F)C(=O)N=c1ccccn1Cc1ccc(Cl)nc1 (stereo not drawn) [E2-174] | at least 75% | at least 75% |
| O=C(N=c1ccccn1Cc1ccc(Cl)nc1)C(F)(F)[S+]([O-])C1CCCCC1 (stereo not drawn) [E2-175] | at least 75% | – |
| O=C(N=c1ccccn1Cc1ccc(Cl)nc1)C(F)(F)[S+]([O-])Cc1ccc(Cl)cc1 (stereo not drawn) [E2-176] | at least 75% | at least 75% |
| O=C(N=c1ccccn1Cc1ccc(Cl)nc1)C(F)(F)[S+]([O-])CCc1ccccc1 (stereo not drawn) [E2-177] | at least 75% | at least 75% |
| CC(C)CC[S+]([O-])C(F)(F)C(=O)N=c1ccccn1Cc1ccc(Cl)nc1 (stereo not drawn) [E2-178] | at least 75% | at least 75% |
| CC(C)OC(=O)C[S+]([O-])C(F)(F)C(=O)N=c1ccccn1Cc1ccc(Cl)nc1 (stereo not drawn) [E2-179] | at least 75% | at least 75% |
| CCC(C)C[S+]([O-])C(F)(F)C(=O)N=c1ccccn1Cc1ccc(Cl)nc1 (stereo not drawn) [E2-181] | at least 75% | at least 75% |
| CCOC(=O)CC[S+]([O-])C(F)(F)C(=O)N=c1ccccn1Cc1ccc(Cl)nc1 (stereo not drawn) [E2-182] | at least 75% | at least 75% |
| CCCCOC(=O)C[S+]([O-])C(F)(F)C(=O)N=c1ccccn1Cc1ccc(Cl)nc1 (stereo not drawn) [E2-183] | at least 75% | at least 75% |
| Cc1ccc(C[S+]([O-])C(F)(F)C(=O)N=c2ccccn2Cc2ccc(Cl)nc2)cc1 (stereo not drawn) [E2-196] | at least 75% | – |
| O=C(N=c1ccccn1Cc1ccc(Cl)nc1)C(F)(F)[S+]([O-])c1nc(-c2ccc(Cl)cc2)cs1 (stereo not drawn) [E2-201] | at least 75% | – |
